PubChem BioAssay AID1259254 | NCATS – 2017
Screen: 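Genome-wide screen for genes that prevent DNA re-replication in cancer cells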 (primary screen). Cells: human HCT116 colorectal cancer cells. Reagents: single siRNA against human genes. Timing: 3 days. Read-out: 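Nuclei stained with Hoechst and imaged; cell-cycle phase assigned by DNA content; G2 share scaled per plate, non-targeting siRNA 0%, GMNN siRNA 100%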. Scale: G2 robust z-score and G2 cells, % of GMNN control: higher = more G2 cells, more excess DNA replication; raw share of cells in G2: higher = larger share of cells with G2 DNA content. Rule for the call: 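An siRNA counts as active if its G2 robust z-score lies at least 5 MADs above the screen median; here such calls match roughly 38% of GMNN control or more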.
Here is one part, drawn at random, of about 59,000 reagents tested. About 1,550 of all reagents (2.6%) were called active. 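G2 share is only a proxy for re-replication; each gene was hit by three separate siRNAs, and active genes were retested.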 The raw values are shown without normalisation. The numbers tell different reagents against one gene apart. Not given: the amount of reagent.

The opening 8 records, to show the layout:
| gene knocked down | siRNA no. | G2 robust z-score | G2 cells, % of GMNN control | raw share of cells in G2 (%) | Outcome |
| --- | --- | --- | --- | --- | --- |
| TNFRSF25 (TNF receptor superfamily member 25) | 1 | 0.191 | 4.31 | 6.5 | inactive |
| TNFRSF25 (TNF receptor superfamily member 25) | 2 | 1.51 | 13.6 | 9.57 | inactive |
| TNFRSF25 (TNF receptor superfamily member 25) | 3 | -0.785 | -2.56 | 4.37 | inactive |
| NFATC2 (nuclear factor of activated T cells 2) | 1 | -0.869 | -3.14 | 2.21 | inactive |
| NFATC2 (nuclear factor of activated T cells 2) | 2 | 1.27 | 11.9 | 10.4 | inactive |
| NFATC2 (nuclear factor of activated T cells 2) | 3 | 1.45 | 13.2 | 7.88 | inactive |
| LOC389405 (retired record) | 1 | -0.934 | -3.61 | 2.54 | inactive |
| LOC389405 (retired record) | 2 | 1.43 | 13 | 9.08 | inactive |

The list itself, from the first entry:
| gene knocked down | siRNA no. | G2 robust z-score | G2 cells, % of GMNN control | raw share of cells in G2 (%) | Outcome |
| --- | --- | --- | --- | --- | --- |
| TNFRSF25 (TNF receptor superfamily member 25) | 1 | 0.191 | 4.31 | 6.5 | inactive |
| TNFRSF25 (TNF receptor superfamily member 25) | 2 | 1.51 | 13.6 | 9.57 | inactive |
| TNFRSF25 (TNF receptor superfamily member 25) | 3 | -0.785 | -2.56 | 4.37 | inactive |
| NFATC2 (nuclear factor of activated T cells 2) | 1 | -0.869 | -3.14 | 2.21 | inactive |
| NFATC2 (nuclear factor of activated T cells 2) | 2 | 1.27 | 11.9 | 10.4 | inactive |
| NFATC2 (nuclear factor of activated T cells 2) | 3 | 1.45 | 13.2 | 7.88 | inactive |
| LOC389405 (retired record) | 1 | -0.934 | -3.61 | 2.54 | inactive |
| LOC389405 (retired record) | 2 | 1.43 | 13 | 9.08 | inactive |
| LOC389405 (retired record) | 3 | -0.35 | 0.507 | 4.85 | inactive |
| CLDN17 (claudin 17) | 1 | 1.54 | 13.8 | 7.67 | inactive |
| CLDN17 (claudin 17) | 2 | -0.468 | -0.329 | 5.76 | inactive |
| CLDN17 (claudin 17) | 3 | 0.0424 | 3.27 | 4.66 | inactive |
| TMTC1 (transmembrane O-mannosyltransferase targeting cadherins 1) | 1 | -0.217 | 1.44 | 5.32 | inactive |
| TMTC1 (transmembrane O-mannosyltransferase targeting cadherins 1) | 2 | -0.976 | -3.9 | 3.81 | inactive |
| TMTC1 (transmembrane O-mannosyltransferase targeting cadherins 1) | 3 | 0.854 | 8.98 | 7.44 | inactive |
| SYT9 (synaptotagmin 9) | 1 | 0.179 | 4.23 | 4.55 | inactive |
| SYT9 (synaptotagmin 9) | 2 | 1.17 | 11.2 | 7.05 | inactive |
| SYT9 (synaptotagmin 9) | 3 | -0.585 | -1.15 | 3.12 | inactive |
| TYW2 (tRNA wybutosine-synthesizing protein 2) | 1 | 1.22 | 11.5 | 9.14 | inactive |
| TYW2 (tRNA wybutosine-synthesizing protein 2) | 2 | 1.35 | 12.5 | 11.9 | inactive |
| TYW2 (tRNA wybutosine-synthesizing protein 2) | 3 | -0.0616 | 2.53 | 5.35 | inactive |
| ERMARD (ER membrane associated RNA degradation) | 1 | -0.0433 | 2.66 | 5.55 | inactive |
| ERMARD (ER membrane associated RNA degradation) | 2 | -0.813 | -2.75 | 3 | inactive |
| ERMARD (ER membrane associated RNA degradation) | 3 | -0.24 | 1.28 | 3.54 | inactive |
| NEK10 (NIMA related kinase 10) | 1 | -0.404 | 0.123 | 5.63 | inactive |
| NEK10 (NIMA related kinase 10) | 2 | -0.941 | -3.65 | 3.86 | inactive |
| NEK10 (NIMA related kinase 10) | 3 | 0.0413 | 3.26 | 4.73 | inactive |
| ZNF214 (zinc finger protein 214) | 1 | -1.2 | -5.48 | 1.7 | inactive |
| ZNF214 (zinc finger protein 214) | 2 | 0.606 | 7.23 | 9.21 | inactive |
| ZNF214 (zinc finger protein 214) | 3 | 0.965 | 9.76 | 7.43 | inactive |
| MKKS (MKKS centrosomal shuttling protein) | 1 | -0.676 | -1.79 | 2.93 | inactive |
| MKKS (MKKS centrosomal shuttling protein) | 2 | -0.0403 | 2.68 | 7.18 | inactive |
| MKKS (MKKS centrosomal shuttling protein) | 3 | -1.14 | -5.08 | 1.21 | inactive |
| MUC5AC (mucin 5AC, oligomeric mucus/gel-forming) | 1 | 6.88 | 51.4 | 26.8 | active |
| MUC5AC (mucin 5AC, oligomeric mucus/gel-forming) | 2 | -1.03 | -4.29 | 2.53 | inactive |
| MUC5AC (mucin 5AC, oligomeric mucus/gel-forming) | 3 | 0.385 | 5.68 | 5.41 | inactive |
| SMCO3 (single-pass membrane protein with coiled-coil domains 3) | 1 | 0.656 | 7.58 | 6.55 | inactive |
| SMCO3 (single-pass membrane protein with coiled-coil domains 3) | 2 | -0.404 | 0.122 | 3.46 | inactive |
| SMCO3 (single-pass membrane protein with coiled-coil domains 3) | 3 | 6.55 | 49.1 | 19.8 | active |
| PLAG1 (PLAG1 zinc finger) | 1 | 3.85 | 30 | 15.4 | inactive |
| PLAG1 (PLAG1 zinc finger) | 2 | 0.896 | 9.27 | 9.19 | inactive |
| PLAG1 (PLAG1 zinc finger) | 3 | -0.575 | -1.08 | 2.72 | inactive |
| PNPLA4 | 1 | 2.9 | 23.4 | 15.5 | inactive |
| PNPLA4 | 2 | -0.217 | 1.44 | 4.47 | inactive |
| PNPLA4 | 3 | 2.07 | 17.5 | 9.55 | inactive |
| HDAC10 (histone deacetylase 10) | 1 | -0.376 | 0.323 | 5.56 | inactive |
| HDAC10 (histone deacetylase 10) | 2 | 2.07 | 17.6 | 10.5 | inactive |
| HDAC10 (histone deacetylase 10) | 3 | 2.2 | 18.5 | 11.6 | inactive |
| TMEM187 (transmembrane protein 187) | 1 | -0.236 | 1.31 | 5.71 | inactive |
| TMEM187 (transmembrane protein 187) | 2 | -0.081 | 2.4 | 4.85 | inactive |
| TMEM187 (transmembrane protein 187) | 3 | 0.705 | 7.93 | 6.15 | inactive |
| SLAIN2 (SLAIN family member 2) | 1 | 2.05 | 17.4 | 11.2 | inactive |
| SLAIN2 (SLAIN family member 2) | 2 | -0.0821 | 2.39 | 5.6 | inactive |
| SLAIN2 (SLAIN family member 2) | 3 | 0.873 | 9.11 | 5.92 | inactive |
| CDK5 (cyclin dependent kinase 5) | 1 | 1.46 | 13.3 | 9.99 | inactive |
| CDK5 (cyclin dependent kinase 5) | 2 | 1.41 | 12.9 | 9.75 | inactive |
| CDK5 (cyclin dependent kinase 5) | 3 | -0.605 | -1.29 | 3.57 | inactive |
| NUP42 (nucleoporin 42) | 1 | -1.58 | -8.14 | 2.33 | inactive |
| NUP42 (nucleoporin 42) | 2 | 0.714 | 7.99 | 7.48 | inactive |
| NUP42 (nucleoporin 42) | 3 | 2.44 | 20.2 | 12.2 | inactive |
| ARMCX3 (armadillo repeat containing X-linked 3) | 1 | 0.628 | 7.38 | 6.25 | inactive |
| ARMCX3 (armadillo repeat containing X-linked 3) | 2 | 0.234 | 4.61 | 6.21 | inactive |
| ARMCX3 (armadillo repeat containing X-linked 3) | 3 | 2.94 | 23.7 | 11 | inactive |
| RHOBTB2 (Rho related BTB domain containing 2) | 1 | 0.561 | 6.91 | 9.14 | inactive |
| RHOBTB2 (Rho related BTB domain containing 2) | 2 | -0.403 | 0.134 | 4.2 | inactive |
| RHOBTB2 (Rho related BTB domain containing 2) | 3 | 0.486 | 6.39 | 6.05 | inactive |
| RABGAP1L (RAB GTPase activating protein 1 like) | 1 | 0.375 | 5.61 | 7.86 | inactive |
| RABGAP1L (RAB GTPase activating protein 1 like) | 2 | 0.942 | 9.6 | 7.95 | inactive |
| RABGAP1L (RAB GTPase activating protein 1 like) | 3 | -0.622 | -1.41 | 2.89 | inactive |
